According to PMC9163188:
Results are given in words; binding and its absence hold for the method and conditions named. Binding seen in cells or lysates may run through a third protein. Some binding calls cover weakened binding; strength is not graded here. Sequences can lack the tags named with a protein.

Sequences of proteins named here, by UniProt entry; tags and fusion partners are left off.
UniProt P99999: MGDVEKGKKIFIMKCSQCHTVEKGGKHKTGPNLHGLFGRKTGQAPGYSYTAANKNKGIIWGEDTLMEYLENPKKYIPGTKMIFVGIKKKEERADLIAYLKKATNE

Target: T1, Flag-USP53 (ubiquitin-specific peptidase 53) (UniProt Q70EK8)
T1 sequence: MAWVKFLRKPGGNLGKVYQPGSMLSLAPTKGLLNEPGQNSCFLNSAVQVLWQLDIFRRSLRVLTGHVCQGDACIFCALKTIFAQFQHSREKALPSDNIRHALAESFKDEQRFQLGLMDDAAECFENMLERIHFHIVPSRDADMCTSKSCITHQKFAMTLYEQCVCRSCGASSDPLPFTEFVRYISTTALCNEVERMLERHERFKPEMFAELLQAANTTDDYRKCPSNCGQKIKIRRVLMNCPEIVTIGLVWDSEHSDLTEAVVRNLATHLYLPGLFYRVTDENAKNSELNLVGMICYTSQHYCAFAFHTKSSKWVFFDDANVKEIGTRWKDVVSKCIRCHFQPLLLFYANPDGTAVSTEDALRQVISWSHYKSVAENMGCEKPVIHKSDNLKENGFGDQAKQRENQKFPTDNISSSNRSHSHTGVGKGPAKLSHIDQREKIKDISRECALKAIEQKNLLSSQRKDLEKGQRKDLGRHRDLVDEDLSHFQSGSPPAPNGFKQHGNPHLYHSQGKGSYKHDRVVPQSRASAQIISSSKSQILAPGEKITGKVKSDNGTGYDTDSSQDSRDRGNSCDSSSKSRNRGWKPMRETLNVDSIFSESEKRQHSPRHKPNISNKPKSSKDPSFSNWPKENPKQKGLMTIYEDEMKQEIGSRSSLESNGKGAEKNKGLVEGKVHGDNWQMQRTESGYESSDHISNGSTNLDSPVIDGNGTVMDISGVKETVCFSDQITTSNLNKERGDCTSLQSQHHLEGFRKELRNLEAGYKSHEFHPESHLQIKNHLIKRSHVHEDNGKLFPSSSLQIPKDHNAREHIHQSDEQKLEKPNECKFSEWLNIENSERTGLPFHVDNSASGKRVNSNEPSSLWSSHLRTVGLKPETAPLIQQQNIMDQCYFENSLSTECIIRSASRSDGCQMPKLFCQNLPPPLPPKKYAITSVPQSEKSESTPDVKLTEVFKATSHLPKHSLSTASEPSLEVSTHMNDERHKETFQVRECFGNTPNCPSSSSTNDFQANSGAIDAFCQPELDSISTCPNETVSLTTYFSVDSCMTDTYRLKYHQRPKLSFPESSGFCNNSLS
Experiment: co-IP; exogenous Co-IP: HA-CYCS and Flag-USP53 co-transfected into HEK-293T cells (text: HEK-293T, Huh-7 and HCCLM3); same protocol as the CO-IP/MS (IP buffer, anti-flag antibody or IgG, Protein A/G magnetic beads, 4 °C)

binding: binds
Substance: HA-CYCS (from UniProt P99999 1-105)
